Reference: PubChem BioAssay AID232 (DTP/NCI, 2004)
The list is a part of this screen's results and no random one: its compounds were picked by chemical class. Not every dose and run of a compound is shown. T/C: endpoint of the treated group in % of that of the vehicle group. Where survival is the endpoint, the PubChem record calls one and a half times the control and up active, and a quarter to a half above the control has no call in these data; cut-offs in other NCI protocols can differ. Some entries show no survivor count and are marked so; the dose need not have been tolerated. Schedules are NCI's codes, read here as Q, the interval in days (D) or hours (H), X, the number of doses. Some entries hold several experiments; their values stand side by side, smallest first. Signs of the kind (2×) say how often a value occurs here.

System: Gardner 6C3HED lymphosarcoma ip, C3AKF1 mice, survival T/C
Test: NCI In Vivo Anticancer Drug Screen. Data for tumor model Lymphosarcoma Gardner 6C3HED (intraperitoneal) in C3AKF1 (CHKRF1) mice
Details: T/C endpoint: survival time, mean or median, schedule: Q01DX010 (ip), vehicle: saline, higher T/C = longer survival
Method: The antitumor activity of compounds was measured in mice bearing transplantable tumors. Survival or tumor size were measured and the results are expressed as the measurement made in the treated group (T) divided by the measurement made in the vehicle treated control group (C). The tumor model used in this assay is Lymphosarcoma Gardner 6C3HED (intraperitoneal) in C3AKF1 (CHKRF1) mice

CN(CCCl)CCCl
T/C (dose: 0.06 mg/kg/injection): 108 [survivor count not shown], 120 [survivor count not shown] (2×), 131 % of control [survivor count not shown] | T/C (dose: 0.13 mg/kg/injection): 91 [survivor count not shown], 120 [survivor count not shown] (2×), 150 [survivor count not shown], 172 % of control [survivor count not shown] | T/C (dose: 0.25 mg/kg/injection): 90 [survivor count not shown], 150 [survivor count not shown] (2×), 170 [survivor count not shown], 175 % of control [survivor count not shown] | T/C (dose: 0.5 mg/kg/injection): 179 [survivor count not shown], 181 [survivor count not shown], 195 [survivor count not shown], 200 % of control [survivor count not shown]
